From the supplement of paper PMC3334620
In all, about 33,000 sequences were measured (“E-score (-0.5 to 0.5)”: median about -0.015, highest 2% from about 0.3 on). This is one part of the list.

target: T1, Abf1 (UniProt P14164); assay: PBM E-score (8-mer binding enrichment) (E-score (-0.5 to 0.5)); higher = stronger / more preferred TF binding; settings: protein concentration: 200 nM; construct: GST-full length
T1 sequence: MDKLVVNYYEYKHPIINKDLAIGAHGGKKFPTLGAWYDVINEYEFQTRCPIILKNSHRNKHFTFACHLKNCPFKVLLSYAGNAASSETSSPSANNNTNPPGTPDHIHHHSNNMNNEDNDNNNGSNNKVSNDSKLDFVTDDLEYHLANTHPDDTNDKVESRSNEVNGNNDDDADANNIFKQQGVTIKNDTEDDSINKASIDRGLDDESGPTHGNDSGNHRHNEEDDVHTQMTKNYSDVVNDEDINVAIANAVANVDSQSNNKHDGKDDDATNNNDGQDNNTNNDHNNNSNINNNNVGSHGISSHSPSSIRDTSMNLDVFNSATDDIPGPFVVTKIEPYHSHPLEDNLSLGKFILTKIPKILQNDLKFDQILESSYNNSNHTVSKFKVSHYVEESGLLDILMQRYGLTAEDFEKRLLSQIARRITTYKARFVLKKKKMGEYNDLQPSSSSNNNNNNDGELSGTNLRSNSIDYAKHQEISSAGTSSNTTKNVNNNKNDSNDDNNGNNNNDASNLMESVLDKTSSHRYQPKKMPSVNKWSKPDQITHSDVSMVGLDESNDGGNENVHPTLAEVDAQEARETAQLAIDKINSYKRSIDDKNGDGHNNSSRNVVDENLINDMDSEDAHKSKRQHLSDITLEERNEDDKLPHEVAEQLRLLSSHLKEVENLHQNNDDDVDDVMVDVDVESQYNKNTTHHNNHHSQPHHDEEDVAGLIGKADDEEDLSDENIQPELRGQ
Procedure: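 Universal 'all 10-mer' protein binding microarrays (Agilent AMADID 015681) probed with GST-tagged S. cerevisiae TFs (full-length or DBD) made by in vitro transcription/translation (PURExpress), about 100-200 nM. Bound TF was detected with fluorescent anti-GST. Each ungapped 8-mer (which stands for itself and its reverse complement) is scored by the PBM enrichment score (E-score), a modified Wilcoxon-Mann-Whitney statistic from -0.5 to +0.5, computed with the Universal PBM Analysis Suite. Scale: above 0.35 generally sequence-specific binding.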

Row | Sequence | PBM E-score
1 | ATAATAGC | 0.0936
2 | CCTGTTCA | -0.0118
3 | AAATTTTC | 0.0539
4 | ACTTGTGG | -0.236
5 | CACTTAGC | -0.112
6 | ACCTATCC | -0.0243
7 | CATGACTA | 0.152
8 | AATTAATG | 0.128
9 | CCCACAAG | -0.302
10 | CAAGGAGC | -0.363
11 | AAGGATCG | -0.0401
12 | TCGACTAA | 0.00887
13 | CCGTGTCA | 0.268
14 | CTGCTACA | -0.0874
15 | CGCGGAGA | 0.0532
16 | ATTCCTGA | -0.088
17 | AAATGACA | 0.358
18 | TCGAGACA | 0.0475
19 | CCGGGGCC | -0.183
20 | CCCCCCCC | -0.455
21 | CAAACTTC | 0.0794
22 | AGGTACTA | 0.0847
23 | CCCTGGGC | -0.325
24 | ATATCCGA | 0.2
25 | AGTATCCG | 0.209

Row | Sequence | PBM E-score
26 | ACGGAGTC | 0.0181
27 | CCCCGGTA | -0.16
28 | CACCCCCC | -0.356
29 | AAAACAGC | -0.235
30 | CACGGACC | 0.0752
31 | GTCCGATA | 0.0454
32 | TGTCGCAA | 0.00536
33 | AACCCTAG | -0.00875
34 | GAGGACGC | -0.202
35 | GAATGAGC | 0.051
36 | GAGCTGGC | -0.166
37 | CCGTAGTC | -0.0228
38 | ACACAGGA | -0.0696
39 | CGTCCAGC | -0.0241
40 | GCATGAGC | 0.0199
41 | ATTGTGGC | 0.0319
42 | AAACCTCA | 0.048
43 | AAACGACC | 0.228
44 | AACATGGC | -0.172
45 | AATGGGAA | -0.238
46 | ATACAATG | 0.132
47 | GGGGCACC | -0.23
48 | AAGAAGAT | 0.141
49 | CGGTGAAA | 0.186
50 | AAAGTAAA | 0.00942

Quoted at random: three records from the list.
Row | Sequence | PBM E-score
45 | AATGGGAA | -0.238
30 | CACGGACC | 0.0752
50 | AAAGTAAA | 0.00942

More entries

Row | Sequence | PBM E-score
51 | CTTTTCCC | 0.0095
52 | ATTGCATC | -0.114
53 | ATGAGTAA | -0.0375
54 | AGAAAGTG | -0.0413
55 | GTACATAC | 0.0732
56 | TCTGCAAA | 0.0364
57 | AGAGCCTA | -0.221
58 | AGCGCCGA | -0.115
59 | ATCACAAC | 0.176
60 | AAGAAATA | 0.146
61 | ATGCTATA | 0.0713
62 | CTCCTTTA | -0.178
63 | GCAATAGA | 0.0325
64 | AACACGTT | -0.0453
65 | GCTCCACA | -0.197
66 | CAACTGAC | -0.126
67 | ACGAAAAG | 0.218
68 | GAAAAAGC | 0.0697
69 | ATCTTAAG | 0.0565
70 | CTTAACTA | 0.142
71 | CTAGTGAG | -0.0339
72 | CGTCTGAC | 0.15
73 | TGTAACAA | 0.0346
74 | CAGGTGGA | -0.203
75 | ACTTTCAT | 0.0673

Some of the entries above, reformatted.

| Row | Sequence | PBM E-score |
| --- | --- | --- |
| 71 | CTAGTGAG | -0.0339 |
| 72 | CGTCTGAC | 0.15 |

Further entries.

Row | Sequence | PBM E-score
76 | AATAGGGC | 0.0151
77 | ATTCTCAG | -0.0263
78 | ATCAGAAA | -0.159
79 | AACGCCCC | -0.0138
80 | AATCCTTG | -0.213
81 | GGAGGCGA | -0.179
82 | AGCTGAGC | -0.149
83 | CTGCGATC | -0.144
84 | AAAGGCAT | 0.0285
85 | AAGTCAAC | 0.0281
86 | CAGCGACC | -0.171
87 | AATATCAC | 0.441
88 | AGTTCTCG | 0.0252
89 | TCGCCAAA | -0.0101
90 | ATTTGCTG | 0.106
91 | CCTCATTA | 0.133
92 | ATCTTAAA | 0.0373
93 | ATACTTCA | 0.0492
94 | ACGGCTCT | 0.227
95 | ATCCCCGA | -0.116
96 | CAATAAGA | 0.0753
97 | CAAGCGGA | -0.103
98 | CCTTGCTA | 0.0311
99 | GAGCCCCC | -0.283
100 | GTTTATAA | 0.156

From no. 3 as far as 5, copied from above:
Row | Sequence | PBM E-score
3 | AAATTTTC | 0.0539
4 | ACTTGTGG | -0.236
5 | CACTTAGC | -0.112

Remaining list, next part

Row | Sequence | PBM E-score
101 | CGACCTAA | 0.141
102 | CGAGTCTC | -0.0241
103 | CACCCCTC | -0.0463
104 | AGAAGAGG | -0.211
105 | ATAACTAC | 0.144
106 | ACCCGTGC | 0.104
107 | CCTGCAGG | -0.175
108 | CAAGATTG | 0.017
109 | CATAGTCA | 0.109
110 | GAAGAAAA | -0.114
111 | GCCACCGC | -0.188
112 | ATCGGTTA | 0.0643
113 | CCCTGGCC | -0.178
114 | CTTTATTC | -0.0198
115 | AGATCGCC | 0.157
116 | CAGAACGA | 0.242
117 | CATAGGAC | -0.122
118 | CGGCTGCA | -0.0811
119 | GTTCTACA | -0.0412
120 | GGGGAAAA | -0.179
121 | AGAAACCA | -0.068
122 | ATCCTAGC | 0.0133
123 | ATGCCTGG | -0.00694
124 | ACCTAAAC | -0.0038
125 | CCCATACA | -0.178

Row | Sequence | PBM E-score
126 | ATTGCAGC | -0.0863
127 | ACAGCGGG | -0.0337
128 | ACTTGCAT | -0.176
129 | GCTACGTA | 0.276
130 | GACTCGTA | 0.0549
131 | ACACATAG | -0.0492
132 | AGAGTGTG | -0.158
133 | ACAGTTAG | 0.023
134 | AGCGTCAT | -0.09
135 | CAAAGCGG | -0.0648
136 | CACTATGG | -0.145
137 | CTTTACGC | -0.0735
138 | CAATCCAG | -0.0221
139 | AGCTATTA | 0.00176
140 | TCTGACAA | 0.0639
141 | CCGTTCCA | 0.0898
142 | CGCAACTA | 0.0892
143 | CGTTAACG | 0.142
144 | CAAGAACC | 0.0485
145 | TGCCGTAA | 0.071
146 | GAAGGCGC | -0.117
147 | ATAATTCA | 0.141
148 | GAGCCTAA | -0.225
149 | CCGACCTA | 0.122
150 | GAAACTGA | -0.0678

Row | Sequence | PBM E-score
151 | AAAGACCG | -0.00037
152 | CGTCGCTA | 0.205
153 | TCGGTCAA | 0.0305
154 | CGCCTTGA | -0.135
155 | ATCGAGAT | 0.0204
156 | GCACTCCC | -0.296
157 | CAAATCTG | 0.0375
158 | CTCCCCGA | -0.147
159 | GATTAAGC | -0.043
160 | ACATAAGT | 0.0602
161 | AAACTTCA | 0.0314
162 | AAAGTTCT | -0.139
163 | ACGGCGAT | 0.313
164 | CACTACAA | 0.284
165 | ACGCGACG | 0.0907
166 | AATTTAGC | 0.116
167 | TAACAATA | 0.0567
168 | CAGTGTAC | 0.0351
169 | CTCACAAA | -0.216
170 | CGCGTGGC | -0.0699
171 | AATTCAGG | 0.0511
172 | ATGGTTGA | -0.0624
